Laboratory results reported in paper doi:10.1101/2021.04.06.438596.
Results are given in words; binding and its absence hold for the method and conditions named. Some results given as binding are weak or reduced against the parent protein; the word gives no strength.

Biological target: T1, recombinant human Sept9_i1 (human), Q9UHD8
T1 chain: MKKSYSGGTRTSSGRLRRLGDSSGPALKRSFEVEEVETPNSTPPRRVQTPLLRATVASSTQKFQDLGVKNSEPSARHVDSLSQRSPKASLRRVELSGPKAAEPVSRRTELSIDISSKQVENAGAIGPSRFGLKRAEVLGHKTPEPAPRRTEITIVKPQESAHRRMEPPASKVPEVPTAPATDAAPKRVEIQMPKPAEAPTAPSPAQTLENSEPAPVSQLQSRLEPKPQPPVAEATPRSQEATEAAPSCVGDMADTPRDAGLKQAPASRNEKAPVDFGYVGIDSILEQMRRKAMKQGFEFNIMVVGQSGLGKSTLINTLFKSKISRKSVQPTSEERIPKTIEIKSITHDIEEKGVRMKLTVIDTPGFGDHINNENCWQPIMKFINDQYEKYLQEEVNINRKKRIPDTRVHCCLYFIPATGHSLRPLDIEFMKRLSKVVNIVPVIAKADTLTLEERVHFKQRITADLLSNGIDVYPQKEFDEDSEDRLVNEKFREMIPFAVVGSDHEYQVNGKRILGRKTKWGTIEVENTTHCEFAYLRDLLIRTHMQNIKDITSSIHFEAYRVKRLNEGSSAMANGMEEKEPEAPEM
Experiment: co-purification of a recombinant complex + native gel or EMSA
Details: remark: other sources report otherwise

binding: binds
B1: recombinant human Sept9_i1, Q9UHD8 1-586 (protein)
chain: T1 chain
